The target of the test is cynomolgus monkey CD40-his protein (Acro biosystems, Cat # CD0-052H6) (cynomolgus monkey) (UniProt G7PG38). Nature of the test: SPR, Biacore. Background: SPR reads the build-up and loss of mass on a sensor chip optically.

These are yes or no findings as the source states them, for the method shown. Some results given as binding are weak or reduced against the parent protein; the word gives no strength.

B1: humanized antibody huC1C1-V7 (antibody, human IgG1, kappa, V domains shown)
VH: EVQLVESGGGVVQPGRSLRLSCAASGFTFSNYGMSWVRQAPGKGLEWVASISSGGDDTYYPDNVKGRFTISRDNSKNTLYLQMNSLRAEDTAVYYCTRAGGKAMDYWGQGTLVTVSS
VL: EIVLTQSPATLSLSPGERATLSCRASQSIRDNLHWYQQKPGQAPRLLIYYASQSISGIPARFSGSGSGTDFTLTISSLEPEDFAVYYCQQFNSWPLTFGQGTKVEIKR
Take B1: the binding entry was “binds”.

B2: mouse anti-CD40 monoclonal antibody C1C1 (antibody, V domains shown)
VH: EVKLVESGGGLVKPGASLKLSCAASGFTFSNYGMSWVRQNSDKRLEWVASISSGGDDTYYPDNVKGRCTISRENAKNTLYLEMSSLKTEDTALYYCTRAGGKAMDYWGQGTSVTVST
VL: DIVLTQSPATLSVIPGNSVSLSCRASQSIRDNLHWYQQKSHESPRLLINYASQSISGIPSRFSGSGSGTDFTLTINSVETEDFGIYFCQQFNSWPLTFGGGTKLELK
B2: the binding entry is reported as “binds”.

The values are drawn from patent US20200332017A1.
